# Assay results

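A panel of P. falciparum strains inside erythrocytes is exposed to compounds for three days, then a DNA-binding dye reports the amount of parasite DNA. Each compound was titrated across a series from about 0.000037 to 29 µM. The number is the fitted AC50, the concentration giving a half-maximal change in signal; a lower value means higher potency, whether the curve shows a decrease or an increase. Calls follow the curve class and fit quality: every row here is inconclusive, covering signal-raising curves and weak, poorly fitted, partial or highest-dose-only inhibition curves.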

Values are in µM. All entries here are filed as inconclusive. These entries are mostly ones the record files as inconclusive; other results of the assay are not listed here. Potencies fitted to partial, single-point or poorly fitting curves are rough.

Compound	tested on / at	potency (µM)	remark
COc1ccc2c(c1)OC(C)(C)C(c1ccccc1)C2c1ccc(OCCN2CCCC2)cc1 (stereo unspecified)	CP315	19.01	inhibitor, single point
COc1ccc2c(c1)OC(C)(C)C(c1ccccc1)C2c1ccc(OCCN2CCCC2)cc1 (stereo unspecified)	PC49	11.22	inhibitor, single point
COc1ccc2c(c1)OC(C)(C)C(c1ccccc1)C2c1ccc(OCCN2CCCC2)cc1 (stereo unspecified)	FAB9	11.22	inhibitor, single point
COC(=O)C1=C(C#N)NC(C)=C(C(=O)OC(C)C)C1c1cccc([N+](=O)[O-])c1 (stereo unspecified)	CP250	10	inhibitor, single point
COC(=O)C1=C(C#N)NC(C)=C(C(=O)OC(C)C)C1c1cccc([N+](=O)[O-])c1 (stereo unspecified)	CP325	13.46	inhibitor, single point
COC(=O)C1=C(C#N)NC(C)=C(C(=O)OC(C)C)C1c1cccc([N+](=O)[O-])c1 (stereo unspecified)	CP266	19.01	inhibitor, single point
COC(=O)C1=C(C#N)NC(C)=C(C(=O)OC(C)C)C1c1cccc([N+](=O)[O-])c1 (stereo unspecified)	CP262	16.94	inhibitor, single point
COC(=O)C1=C(C#N)NC(C)=C(C(=O)OC(C)C)C1c1cccc([N+](=O)[O-])c1 (stereo unspecified)	JCK	11.22	inhibitor, single point
COC(=O)C1=C(C#N)NC(C)=C(C(=O)OC(C)C)C1c1cccc([N+](=O)[O-])c1 (stereo unspecified)	TAB113	11.22	inhibitor, single point
COC(=O)C1=C(C#N)NC(C)=C(C(=O)OC(C)C)C1c1cccc([N+](=O)[O-])c1 (stereo unspecified)	CP315	19.01	inhibitor, single point
COC(=O)C1=C(C#N)NC(C)=C(C(=O)OC(C)C)C1c1cccc([N+](=O)[O-])c1 (stereo unspecified)	CP192	12	inhibitor, single point
COC(=O)C1=C(C#N)NC(C)=C(C(=O)OC(C)C)C1c1cccc([N+](=O)[O-])c1 (stereo unspecified)	CP268	10.69	inhibitor, partial curve, poor fit
COC(=O)C1=C(C#N)NC(C)=C(C(=O)OC(C)C)C1c1cccc([N+](=O)[O-])c1 (stereo unspecified)	CP252	11.22	inhibitor, single point
COC(=O)C1=C(C#N)NC(C)=C(C(=O)OC(C)C)C1c1cccc([N+](=O)[O-])c1 (stereo unspecified)	P94_40	10	inhibitor, single point
COC(=O)C1=C(C#N)NC(C)=C(C(=O)OC(C)C)C1c1cccc([N+](=O)[O-])c1 (stereo unspecified)	CP201	16.94	inhibitor, single point
COC(=O)C1=C(C#N)NC(C)=C(C(=O)OC(C)C)C1c1cccc([N+](=O)[O-])c1 (stereo unspecified)	CP237	10	inhibitor, single point
Nc1c2c(nc3c1CCC3)CCCC2	CP297	19.01	inhibitor, single point
Nc1c2c(nc3c1CCC3)CCCC2	CP252	17.78	inhibitor, single point
Nc1c2c(nc3c1CCC3)CCCC2	CP335	15.1	inhibitor, single point
Nc1c2c(nc3c1CCC3)CCCC2	CP250	17.78	inhibitor, single point
Nc1c2c(nc3c1CCC3)CCCC2	CP194	19.01	inhibitor, single point
Nc1c2c(nc3c1CCC3)CCCC2	CP266	19.01	inhibitor, single point
Nc1c2c(nc3c1CCC3)CCCC2	CP256	15.85	inhibitor, single point
Nc1c2c(nc3c1CCC3)CCCC2	CP325	19.01	inhibitor, single point
Nc1c2c(nc3c1CCC3)CCCC2	PAD	11.22	inhibitor, single point
Nc1c2c(nc3c1CCC3)CCCC2	CP269	19.01	inhibitor, single point
Nc1c2c(nc3c1CCC3)CCCC2	CP211	12	inhibitor, single point
Nc1c2c(nc3c1CCC3)CCCC2	CP265	17.78	inhibitor, single point
Nc1c2c(nc3c1CCC3)CCCC2	N140	17.78	inhibitor, single point
Nc1c2c(nc3c1CCC3)CCCC2	CP192	19.01	inhibitor, single point
Nc1c2c(nc3c1CCC3)CCCC2	ATS189	17.78	inhibitor, single point
O=P(O)(O)CP(=O)(O)O	CP265	8.912	inhibitor, single point
O=P(O)(O)CP(=O)(O)O	CP185	10	inhibitor, single point
O=P(O)(O)CP(=O)(O)O	CP268	0.4775	inhibitor, full curve, poor fit
O=P(O)(O)CP(=O)(O)O	P94_40	17.78	inhibitor, single point
O=P(O)(O)CP(=O)(O)O	CP191	11.22	inhibitor, single point

The last 3 entries again:

- O=P(O)(O)CP(=O)(O)O [CP268] : potency 0.4775 µM (inhibitor, full curve, poor fit)
- O=P(O)(O)CP(=O)(O)O [P94_40] : potency 17.78 µM (inhibitor, single point)
- O=P(O)(O)CP(=O)(O)O [CP191] : potency 11.22 µM (inhibitor, single point)

The results are deposited in PubChem (AID504749; NCATS, 2011).